This passage reports binding results from PMC9133132.

In the experiment the target is FLAG-tagged MED26 N-terminal domain, wild type (human). The experiment is described as follows: co-IP; FLAG-immunopurified complexes from baculovirus-infected Sf9 cells expressing the indicated proteins (F-MED26-NTD wt or mut with AF4 or AFF4 wt or mut), western blotting. In general terms: A western blot detects proteins with antibodies after separation by electrophoresis.

These are yes or no findings as the source states them, for the method shown. In cells and extracts the contact can be indirect. Binding calls can cover weak binding; strength is not graded here.

B1: AF4, wild type (protein, UniProt P51825 1-1210)
chain: MAAQSSLYNDDRNLLRIREKERRNQEAHQEKEAFPEKIPLFGEPYKTAKGDELSSRIQNMLGNYEEVKEFLSTKSHTHRLDASENRLGKPKYPLIPDKGSSIPSSSFHTSVHHQSIHTPASGPLSVGNISHNPKMAQPRTEPMPSLHAKSCGPPDSQHLTQDRLGQEGFGSSHHKKGDRRADGDHCASVTDSAPERELSPLISLPSPVPPLSPIHSNQQTLPRTQGSSKVHGSSNNSKGYCPAKSPKDLAVKVHDKETPQDSLVAPAQPPSQTFPPPSLPSKSVAMQQKPTAYVRPMDGQDQAPSESPELKPLPEDYRQQTFEKTDLKVPAKAKLTKLKMPSQSVEQTYSNEVHCVEEILKEMTHSWPPPLTAIHTPSTAEPSKFPFPTKDSQHVSSVTQNQKQYDTSSKTHSNSQQGTSSMLEDDLQLSDSEDSDSEQTPEKPPSSSAPPSAPQSLPEPVASAHSSSAESESTSDSDSSSDSESESSSSDSEENEPLETPAPEPEPPTTNKWQLDNWLTKVSQPAAPPEGPRSTEPPRRHPESKGSSDSATSQEHSESKDPPPKSSSKAPRAPPEAPHPGKRSCQKSPAQQEPPQRQTVGTKQPKKPVKASARAGSRTSLQGEREPGLLPYGSRDQTSKDKPKVKTKGRPRAAASNEPKPAVPPSSEKKKHKSSLPAPSKALSGPEPAKDNVEDRTPEHFALVPLTESQGPPHSGSGSRTSGCRQAVVVQEDSRKDRLPLPLRDTKLLSPLRDTPPPQSLMVKITLDLLSRIPQPPGKGSRQRKAEDKQPPAGKKHSSEKRSSDSSSKLAKKRKGEAERDCDNKKIRLEKEIKSQSSSSSSSHKESSKTKPSRPSSQSSKKEMLPPPPVSSSSQKPAKPALKRSRREADTCGQDPPKSASSTKSNHKDSSIPKQRRVEGKGSRSSSEHKGSSGDTANPFPVPSLPNGNSKPGKPQVKFDKQQADLHMREAKKMKQKAELMTDRVGKAFKYLEAVLSFIECGIATESESQSSKSAYSVYSETVDLIKFIMSLKSFSDATAPTQEKIFAVLCMRCQSILNMAMFRCKKDIAIKYSRTLNKHFESSSKVAQAPSPCIASTGTPSPLSPMPSPASSVGSQSSAGSVGSSGVAATISTPVTIQNMTSSYVTITSHVLTAFDLWEQAEALTRKNKEFFARLSTNVCTLALNSSLVDLVHYTRQGFQQLQELTKTP
On to B1, for which the binding entry is on record as “binds”.

B2: AFF4, wild type (protein, UniProt Q9UHB7 1-1163)
chain: MNREDRNVLRMKERERRNQEIQQGEDAFPPSSPLFAEPYKVTSKEDKLSSRIQSMLGNYDEMKDFIGDRSIPKLVAIPKPTVPPSADEKSNPNFFEQRHGGSHQSSKWTPVGPAPSTSQSQKRSSGLQSGHSSQRTSAGSSSGTNSSGQRHDRESYNNSGSSSRKKGQHGSEHSKSRSSSPGKPQAVSSLNSSHSRSHGNDHHSKEHQRSKSPRDPDANWDSPSRVPFSSGQHSTQSFPPSLMSKSNSMLQKPTAYVRPMDGQESMEPKLSSEHYSSQSHGNSMTELKPSSKAHLTKLKIPSQPLDASASGDVSCVDEILKEMTHSWPPPLTAIHTPCKTEPSKFPFPTKESQQSNFGTGEQKRYNPSKTSNGHQSKSMLKDDLKLSSSEDSDGEQDCDKTMPRSTPGSNSEPSHHNSEGADNSRDDSSSHSGSESSSGSDSESESSSSDSEANEPSQSASPEPEPPPTNKWQLDNWLNKVNPHKVSPASSVDSNIPSSQGYKKEGREQGTGNSYTDTSGPKETSSATPGRDSKTIQKGSESGRGRQKSPAQSDSTTQRRTVGKKQPKKAEKAAAEEPRGGLKIESETPVDLASSMPSSRHKAATKGSRKPNIKKESKSSPRPTAEKKKYKSTSKSSQKSREIIETDTSSSDSDESESLPPSSQTPKYPESNRTPVKPSSVEEEDSFFRQRMFSPMEEKELLSPLSEPDDRYPLIVKIDLNLLTRIPGKPYKETEPPKGEKKNVPEKHTREAQKQASEKVSNKGKRKHKNEDDNRASESKKPKTEDKNSAGHKPSSNRESSKQSAAKEKDLLPSPAGPVPSKDPKTEHGSRKRTISQSSSLKSSSNSNKETSGSSKNSSSTSKQKKTEGKTSSSSKEVKEKAPSSSSNCPPSAPTLDSSKPRRTKLVFDDRNYSADHYLQEAKKLKHNADALSDRFEKAVYYLDAVVSFIECGNALEKNAQESKSPFPMYSETVDLIKYTMKLKNYLAPDATAADKRLTVLCLRCESLLYLRLFKLKKENALKYSKTLTEHLKNSYNNSQAPSPGLGSKAVGMPSPVSPKLSPGNSGNYSSGASSASASGSSVTIPQKIHQMAASYVQVTSNFLYATEIWDQAEQLSKEQKEFFAELDKVMGPLIFNASIMTDLVRYTRQGLHWLRQDAKLIS
For the molecule B2, the binding result was “binds”.
